The test is described as follows: qHTS Assay to Find Inhibitors of Chronic Active B-Cell Receptor Signaling. Particulars: ABC-DLBCL IkBa-CBG/CBR reporter, luminescence ratio (green luciferase fused to IkBa over red control in TMD8 lymphoma cells), 4 h. Summed up: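 Concentration-response series (up to 46 uM) were applied to TMD8 dual-reporter cells for 4 h at 37C with doxycycline. Green/red ratio, after filter-overlap correction, defined %Activity; red signal alone was normalised to basal cells and zero luminescence.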
Background: Quantitative high-throughput screening tests each substance at several concentrations.

The mark [1] stands for this setting: measured here: CBR red luminescence, cell number.
Setting [2] is: measured here: IkBa-CBG green luminescence.

This is one part of the list. These are further read-outs of the screen, such as a control signal, another cell line or another target. No call is given for them. Most of these compounds were active or inconclusive in the main read-out, so they are no random draw. The note in brackets gives the kind of curve behind each potency; many fits are weak.

As for `CC1(C)CC(=O)C(C(C2=C(O)CC(C)(C)CC2=O)c2ccc(Br)s2)C(=O)C1` (configuration not stated), the half-maximal activity concentration (AC50) (in general, the concentration giving half of the maximal activity seen) by setting is: under setting [1], 25.9 µM [falling, single point]; under setting [2], 20.6 µM [rising, single point].

Turning to `Cc1ccc(S(=O)(=O)n2ccc3c2CCCC3=O)cc1`, the AC50 under setting [1] is 15.8 µM [rising, partial curve, poor fit].

Regarding `CCC(C)(C(=O)NC1CCCCC1)N(C(=O)c1ccccn1)c1ccc(C)cc1` (configuration not stated), the AC50 under setting [1] was 14.6 µM [falling, partial curve, poor fit].

Regarding `Cc1occc1C(=O)Nc1nccs1`, the AC50 under setting [1] was 8.2 µM [falling, partial curve, poor fit].

Take `Cc1ccc(COc2ccc3c(c2)OCO3)cc1`: the AC50 under setting [1] is 5.62 µM [rising, full curve].

In the case of `CCOC(=O)C(=CNc1ncccc1C)C(=O)OCC`, the AC50 under setting [1] was 0.251 µM [rising, full curve, poor fit].

`Cc1ccc(O)c(CNc2ccccn2)c1`: the AC50 under setting [1] was 1 µM [rising, full curve, poor fit].

Consider `COc1ccc(S(=O)(=O)N(C)C)cc1NC(=O)CSc1nnc(-c2cccnc2)o1`, for which the concentration at half-maximal activity (AC50) under setting [1] was 8.91 µM [rising, partial curve, poor fit].

In the case of `CCCOc1ccc(N2C(=O)CC(NCC#N)C2=O)cc1` (configuration not stated), the AC50 under setting [1] was 2.51 µM [rising, full curve, poor fit].

As to `CC(=O)c1ccc(NC(=O)CN2c3cccc4cccc(c34)S2(=O)=O)cc1`, under setting [1], the concentration at half-maximal activity (AC50) was 5.8 µM [rising, partial curve].

As to `Cc1ccc(NC(=S)NCc2ccccc2)c(C)c1`, under setting [1], the half-maximal activity concentration (AC50) was 31.6 µM [rising, partial curve, poor fit].

As for `Cc1cc(/C=C2/SC(=O)N(CC(=O)OC(C)C)C2=O)c(C)n1C`, the AC50 under setting [1] was 0.58 µM [rising, full curve, poor fit].

Take `Cc1nn(-c2ccccc2)c(Cl)c1/C=N/O`: the AC50 under setting [1] is 2.31 µM [rising, full curve, poor fit].

Regarding `CCN1CC=C2C(C#N)=C(N)C(C#N)(C#N)[C@H](c3ccoc3)[C@H]2C1`, under setting [1], the AC50 was 0.1 µM [falling, full curve, poor fit].

`COc1ccccc1C(=O)NNC(=O)C(=O)NC1CCCCC1`: the half-maximal activity concentration (AC50) under setting [1] is 35.5 µM [falling, single point].

For the compound `CC1=C(C(=O)OC(C)(C)C)C(c2ccc3ccccc3c2)NC(=O)N1C` (configuration not stated), the AC50 under setting [1] was 11.2 µM [falling, partial curve, poor fit].

`S=C(NNc1nc(Nc2ccccc2)nc(N2CCCCC2)n1)NC1CCCCC1`: under setting [1], the AC50 is 14.1 µM [falling, single point].

Take `CSc1nsc2nc(=O)c(/C=C3\C=Nc4ccccc43)c(N)n12`: the half-maximal activity concentration (AC50) under setting [1] was 25.1 µM [falling, single point].

Consider `CC(=O)n1nc(-c2cccc(C)c2)nc1SCC(=O)Nc1ccccc1`, for which the concentration at half-maximal activity (AC50) under setting [1] was 14.6 µM [falling, partial curve].

`O=S1(=O)CCOCCCN1Cc1ccccc1F`: under setting [1], the AC50 was 6.31 µM [rising, single point].

`O=C1CC(c2ccc(O)cc2)Oc2ccccc21` (configuration not stated): the AC50 under setting [1] is 0.184 µM [rising, full curve].

As to `O=C(NCCCCc1ccccc1)c1cc([N+](=O)[O-])cc([N+](=O)[O-])c1`, under setting [1], the AC50 is 17.8 µM [rising, partial curve, poor fit].

For `COc1ccc(OC)c(NC(=O)c2ccccc2N(Cc2ccccc2)S(C)(=O)=O)c1`, under setting [1], the AC50 is 5.01 µM [rising, partial curve, poor fit].

With `CC1(C)CC(CCC(=O)NC(=S)Nc2ccccc2Cl)C(=O)O1` (configuration not stated), the AC50 under setting [1] was 10 µM [falling, partial curve].

For the compound `Clc1ccc(-c2cc(C3CCNCC3)[nH]n2)cc1`, the concentration at half-maximal activity (AC50) under setting [1] was 35.5 µM [falling, single point].

`Cc1ccc(-n2c(=O)cc(N3CCN(Cc4ccccc4)CC3)[nH]c2=O)cc1`: the AC50 under setting [1] is 16.4 µM [rising, single point].

Turning to `COC(=O)c1ccc(COc2ccc(C(C)(C)C)cc2)o1`, the concentration at half-maximal activity (AC50) under setting [1] is 3.98 µM [rising, single point].

Regarding `O=C(c1cc(-c2ccc(Br)cc2)on1)N1CCc2ccccc2C1`, the AC50 under setting [1] was 15.8 µM [rising, single point].

Consider `Cc1ccc(C)c(NC(=O)CSc2nnc(CCCCCNC(=O)OC(C)(C)C)o2)c1`, for which the half-maximal activity concentration (AC50) under setting [1] is 29.1 µM [falling, single point].

With `CCCCSc1nc2sc3c(c2c(=O)[nH]1)CCC3`, the AC50 under setting [1] was 1.64 µM [rising, partial curve, poor fit].

As to `CN(C)c1ccc(/C=N/NC(=O)c2ccc3c(c2)OCO3)cc1`, under setting [1], the AC50 is 7.08 µM [falling, partial curve, poor fit].

For `CC(=O)C1=C(C)N(c2ccccc2)C(=O)C1(NS(=O)(=O)c1ccc(N)cc1)C(F)(F)F` (configuration not stated), the concentration at half-maximal activity (AC50) under setting [1] was 12.6 µM [rising, partial curve].

For the compound `COc1cc(SC)ccc1C(=O)Nc1cccc(C)n1`, under setting [1], the AC50 was 11.2 µM [falling, single point].

Consider `CCOC(=O)c1cnn(-c2cc(C)nc3c(-c4ccccc4)cnn23)c1N`, for which, under setting [1], the half-maximal activity concentration (AC50) was 25.1 µM [rising, partial curve, poor fit].

As for `CCCc1cc(=O)[nH]c(SCc2ccc(F)cc2)n1`, under setting [1], the concentration at half-maximal activity (AC50) was 11.2 µM [falling, partial curve].

As to `Cc1cccc(NC(=O)N2CCCC2C(=O)Nc2ccccc2)c1` (configuration not stated), the AC50 under setting [1] is 35.5 µM [rising, single point].

For the compound `CCOC(=O)N1CCN(C(=O)COc2ccccc2OC)CC1`, the half-maximal activity concentration (AC50) under setting [1] was 35.5 µM [rising, single point].

As for `CCN(CC)C(=O)CN(c1ccc(C)cc1)S(=O)(=O)c1ccc(SC)cc1`, the half-maximal activity concentration (AC50) under setting [1] was 1.58 µM [falling, partial curve].

As to `COc1ccc(C(=O)Nc2ccc(C)cn2)cc1S(=O)(=O)N1CCCc2ccccc21`, under setting [1], the AC50 was 0.82 µM [falling, partial curve].

With `O=C(c1ccccc1)c1c[nH]c(C(=O)C(Cl)(Cl)Cl)c1`, the AC50 under setting [1] is 11.2 µM [falling, partial curve].

Regarding `Cc1c(CCOC(=O)c2ccc([N+](=O)[O-])cc2)sc[n+]1CC(=O)c1ccccc1`, the AC50 under setting [1] is 0.631 µM [rising, partial curve].

Turning to `C/C(CC(=O)Nc1ccc(C)c(Cl)c1)=N\NC(=O)Cc1cccs1`, the AC50 under setting [1] is 31.6 µM [falling, single point].

As to `CCOc1ccccc1NC(=O)C(=O)/C=C(\O)c1cc(OC)ccc1OC`, the concentration at half-maximal activity (AC50) under setting [1] is 1.16 µM [falling, partial curve, poor fit].

In the case of `CCN(Cc1ccc(C#CCCO)cc1)CC1CCCN(CCc2cccc(OC)c2)C1` (configuration not stated), under setting [1], the AC50 was 20 µM [falling, partial curve, poor fit].

For the compound `Cc1c(C(=O)Nc2nnc(C(F)(F)F)s2)oc2ccccc12`, under setting [1], the AC50 is 6.31 µM [falling, full curve].

For the compound `COc1cc2c3c(c1)C(C)=CC(C)(C)N3C(=O)C2=O`, the half-maximal activity concentration (AC50) under setting [2] was 20 µM [falling, partial curve, poor fit].

In the case of `COc1ccc(NC(=O)COC(=O)/C=C/c2ccc(OC)c(S(=O)(=O)N3CCOCC3)c2)cc1`, under setting [1], the AC50 was 7.31 µM [falling, partial curve].

On to `Cc1ccccc1-c1cc(-c2ccccc2O)n[nH]1`, for which the AC50 under setting [1] was 29.1 µM [rising, single point].

As for `Cc1cc(=O)oc(C)c1C(=O)NCCC1=CCCCC1`, the AC50 under setting [1] is 0.00517 µM [rising, full curve, poor fit].

As for `Cc1ccc(-n2ncc3c(N4CCN(c5ccccc5)CC4)ncnc32)c(C)c1`, the AC50 under setting [1] is 7.08 µM [falling, partial curve, poor fit].

With `CSc1ccc(NC(=O)CSc2nc3[nH]c(=O)cc(O)c3s2)cc1`, the half-maximal activity concentration (AC50) under setting [1] is 23.1 µM [falling, partial curve].

Regarding `COc1cccc(C(=O)NOCc2ccccc2)c1OC`, under setting [1], the AC50 is 8.2 µM [rising, partial curve, poor fit].

On to `O=C1NC[C@H](Cc2ccccc2)N(CC2CCCCC2)C1=O`, for which the AC50 under setting [1] is 2 µM [rising, full curve, poor fit].

For `COC(=O)Cn1c(=NC(=O)c2cc(OC)cc(OC)c2)sc2cc(OC)ccc21`, the AC50 under setting [1] was 2.06 µM [falling, full curve].

For the compound `O=C(CN(C(=O)CSc1nc2ccccc2o1)c1ccccc1F)NC1CCCCC1`, the half-maximal activity concentration (AC50) under setting [1] was 2.59 µM [falling, full curve].

`COCC(C)NS(=O)(=O)c1ccc(C(=O)NCCCn2ccc3ccccc32)cc1` (configuration not stated): the AC50 under setting [1] was 14.1 µM [rising, single point].

Turning to `Cc1nn(C(=O)c2cccnc2)c(C)c1C`, under setting [1], the half-maximal activity concentration (AC50) is 35.5 µM [rising, partial curve, poor fit].

With `Cn1c(=O)c2c(nc(NCCCO)n2Cc2cccc(Br)c2)n(C)c1=O`, the concentration at half-maximal activity (AC50) under setting [1] was 9.2 µM [falling, partial curve, poor fit].

On to `C/C(=N\NC(=S)Nc1ccccc1C)C1Cc2ccccc2C(=O)O1` (configuration not stated), for which the AC50 under setting [1] is 25.1 µM [falling, partial curve, poor fit].

For the compound `COc1ccc(OC)c(-c2cc(C(=O)NCCN3CCOCC3)no2)c1`, the AC50 under setting [1] was 12.6 µM [rising, partial curve, poor fit].

Consider `CCOC(=O)c1c(NC(=O)CSc2nnnn2C)sc(C)c1-c1ccc(C)cc1`, for which, under setting [1], the half-maximal activity concentration (AC50) was 15.8 µM [falling, single point].

As to `COc1cccc(C(=O)NCCC2=CCCCC2)c1`, the AC50 under setting [1] was 14.6 µM [falling, single point].

`CN(C)S(=O)(=O)c1ccc(C(=O)Nc2ccc3ncccc3c2)cc1`: under setting [1], the concentration at half-maximal activity (AC50) was 12.6 µM [rising, single point].

In the case of `CC(=O)C1=C(c2ccccc2)NC(=S)NC1c1cc(Cl)c(OC(C)C)c(Cl)c1` (configuration not stated), the AC50 under setting [1] is 29.1 µM [falling, single point].

As to `CCOC(=O)c1csc(NC(=O)c2cc(OC)c(OC)c(OC)c2)n1`, under setting [1], the AC50 was 10 µM [falling, partial curve].

In the case of `Cc1ccc2nsnc2c1NC(=O)c1cccc([N+](=O)[O-])c1`, the concentration at half-maximal activity (AC50) under setting [1] was 18.4 µM [rising, partial curve, poor fit].

These data come from PubChem BioAssay AID493014 (National Center for Advancing Translational Sciences (NCATS), 2011).
